These are yes or no findings as the source states them, for the method shown. In cells and extracts the contact can be indirect. Some results given as binding are weak or reduced against the parent protein; the word gives no strength.

Amino acid sequences for entries named in this document (tags omitted).
UniProt Q96EB6: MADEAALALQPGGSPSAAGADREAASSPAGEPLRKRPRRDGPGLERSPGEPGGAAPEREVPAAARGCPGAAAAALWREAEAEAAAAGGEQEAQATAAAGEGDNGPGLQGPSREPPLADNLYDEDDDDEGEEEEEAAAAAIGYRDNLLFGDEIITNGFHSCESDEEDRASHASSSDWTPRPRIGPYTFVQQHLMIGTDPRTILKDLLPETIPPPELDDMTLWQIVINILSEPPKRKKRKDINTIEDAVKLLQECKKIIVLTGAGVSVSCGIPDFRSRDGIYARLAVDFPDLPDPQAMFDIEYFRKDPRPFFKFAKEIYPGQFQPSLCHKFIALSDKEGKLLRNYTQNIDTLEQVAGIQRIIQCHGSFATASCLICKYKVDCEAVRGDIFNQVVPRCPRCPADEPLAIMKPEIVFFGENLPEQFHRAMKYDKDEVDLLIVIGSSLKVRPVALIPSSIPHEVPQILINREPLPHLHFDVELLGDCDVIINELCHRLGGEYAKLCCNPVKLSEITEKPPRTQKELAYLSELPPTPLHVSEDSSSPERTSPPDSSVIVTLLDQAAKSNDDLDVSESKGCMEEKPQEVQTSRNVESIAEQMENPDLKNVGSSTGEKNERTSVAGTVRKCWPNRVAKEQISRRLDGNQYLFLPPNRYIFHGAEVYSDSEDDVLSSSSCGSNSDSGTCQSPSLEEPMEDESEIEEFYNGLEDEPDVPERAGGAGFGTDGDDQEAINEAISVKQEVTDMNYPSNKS
UniProt Q9ULW0: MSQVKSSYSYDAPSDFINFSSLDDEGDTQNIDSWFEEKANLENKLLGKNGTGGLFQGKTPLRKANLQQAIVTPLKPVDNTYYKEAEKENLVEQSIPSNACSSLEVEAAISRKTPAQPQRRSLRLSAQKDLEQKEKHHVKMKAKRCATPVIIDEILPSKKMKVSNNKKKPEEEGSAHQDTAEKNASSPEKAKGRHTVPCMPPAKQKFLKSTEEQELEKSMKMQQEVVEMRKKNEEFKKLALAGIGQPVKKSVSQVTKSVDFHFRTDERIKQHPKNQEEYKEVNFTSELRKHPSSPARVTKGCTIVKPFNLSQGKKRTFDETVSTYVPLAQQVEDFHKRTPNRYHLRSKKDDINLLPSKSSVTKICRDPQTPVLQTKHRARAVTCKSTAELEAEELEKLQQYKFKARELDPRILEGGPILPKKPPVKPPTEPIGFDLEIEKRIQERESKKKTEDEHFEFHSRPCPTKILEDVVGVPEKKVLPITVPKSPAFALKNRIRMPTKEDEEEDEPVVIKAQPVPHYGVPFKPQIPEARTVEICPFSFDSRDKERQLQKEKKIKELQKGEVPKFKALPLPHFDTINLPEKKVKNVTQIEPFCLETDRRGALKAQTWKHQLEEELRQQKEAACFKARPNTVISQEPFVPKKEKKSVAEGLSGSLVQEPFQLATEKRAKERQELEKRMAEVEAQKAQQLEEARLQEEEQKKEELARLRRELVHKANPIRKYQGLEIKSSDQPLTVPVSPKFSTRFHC

The assay has as its target SIRT1 HDAC (human (endogenous in HeLa)) (UniProt Q96EB6). The assay is described as follows: co-IP; immunoprecipitation with SIRT1 antibodies (Upstate) from HeLa cells, with and without ionizing radiation (10 Gy); blot for TPX2; beads without antibodies as control.

With “targeting protein for Xenopus kinesin like protein 2 (TPX2) (from UniProt Q9ULW0 1-747)”, the binding result was “binds”.

The values are drawn from publication PMC4217740.
